Measurements reported in article PMC6131548.
These are yes or no findings as the source states them, for the method shown. For part of these data: In cells and extracts the contact can be indirect. Some entries that bind do so weakly or less than the wild type. Sequences can lack the tags named with a protein.

Assays:
[1] = target: recombinant WT eS26 (S. cerevisiae (yeast)) (UniProt P39938); test: pull-down; recruitment of eS26 to the Fap7:uS11 complex and extraction by Tsr2, Supplementary Fig. 7b; set-up not shown
[2] = target: T1, GST-Tsr2-C (S. cerevisiae (yeast)) (UniProt Q06672); test: pull-down; GST-Tsr2-C immobilised on Glutathione Sepharose, incubated with purified Tsr2 or Tsr2-N and E. coli lysate containing eS26, with RNase A; Coomassie and western (rows of purified Tsr2 and Tsr2-N); both purified
T1 sequence: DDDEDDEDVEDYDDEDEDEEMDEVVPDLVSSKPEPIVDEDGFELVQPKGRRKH

[3] = target: eS26^ΔESS2-FLAG (S. cerevisiae (yeast)) (UniProt P39938); test: pull-down; 1.5 µM His6-Tsr2 added to preassembled GST-Kap123:eS26^FLAG (variant) complexes on Glutathione Sepharose, 1 h, 4 °C; western with α-FLAG; only the binder purified
[4] = target: eS26^ΔESS1-FLAG (S. cerevisiae (yeast)) (UniProt P39938); test: as above
[5] = target: eS26^FLAG (S. cerevisiae (yeast)) (UniProt P39938); test: as above
[6] = target: T2, ProtA-FLAG-ESS2 (S. cerevisiae (yeast)) (UniProt P39938); test: pull-down; ProteinA-Tev-FLAG-ESS2 purified from yeast; FLAG eluate, SDS-PAGE, Coomassie and western analyses
T2 sequence: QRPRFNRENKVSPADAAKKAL

B1: His6-Tsr2 (protein, UniProt Q06672 1-205)
chain: MSTQYIDETAFVQAEQGKTNLMFSDEKQQARFELGVSMVIYKWDALDVAVENSWGGPDSAEKRDWITGIVVDLFKNEKVVDAALIEETLLYAMIDEFETNVEDDSALPIAVEVINIYNDCFNLNYNKVEKLYLEWQEKQRTKKSKRVVHIEGDDDEDDEDVEDYDDEDEDEEMDEVVPDLVSSKPEPIVDEDGFELVQPKGRRKH
In the case of B1, the binding [1] is reported as “binds”, the binding [2] is reported as “no binding” and the binding [3] is reported as “binds”. For the same binder, the binding [4] was “binds” and the binding [5] was “binds”.

B2: Tsr2 (endogenous, yeast) (protein, UniProt Q06672 1-205)
chain: MSTQYIDETAFVQAEQGKTNLMFSDEKQQARFELGVSMVIYKWDALDVAVENSWGGPDSAEKRDWITGIVVDLFKNEKVVDAALIEETLLYAMIDEFETNVEDDSALPIAVEVINIYNDCFNLNYNKVEKLYLEWQEKQRTKKSKRVVHIEGDDDEDDEDVEDYDDEDEDEEMDEVVPDLVSSKPEPIVDEDGFELVQPKGRRKH
With B2 the binding [6] was “binds”.
